For this experiment, the target named is T1, Heme oxygenase 1 (HA-HO-1) (UniProt P09601).
T1 sequence: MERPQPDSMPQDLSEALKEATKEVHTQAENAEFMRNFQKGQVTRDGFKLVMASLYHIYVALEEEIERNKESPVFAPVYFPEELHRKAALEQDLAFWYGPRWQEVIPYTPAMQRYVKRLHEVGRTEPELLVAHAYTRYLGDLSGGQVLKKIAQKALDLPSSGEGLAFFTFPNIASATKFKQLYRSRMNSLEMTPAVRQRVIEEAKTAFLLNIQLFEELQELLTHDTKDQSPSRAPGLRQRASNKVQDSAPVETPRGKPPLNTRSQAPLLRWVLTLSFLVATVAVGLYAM
Briefly: co-IP; Flag-B-Raf co-transfected with or without HA-HO-1 into HEK293T cells; immunoprecipitated with anti-HA antibody, immunoblotted with antibodies against HA and Flag.

Protein sequences, listed by entry. Tags and fused reporters are not part of them.
UniProt P15056: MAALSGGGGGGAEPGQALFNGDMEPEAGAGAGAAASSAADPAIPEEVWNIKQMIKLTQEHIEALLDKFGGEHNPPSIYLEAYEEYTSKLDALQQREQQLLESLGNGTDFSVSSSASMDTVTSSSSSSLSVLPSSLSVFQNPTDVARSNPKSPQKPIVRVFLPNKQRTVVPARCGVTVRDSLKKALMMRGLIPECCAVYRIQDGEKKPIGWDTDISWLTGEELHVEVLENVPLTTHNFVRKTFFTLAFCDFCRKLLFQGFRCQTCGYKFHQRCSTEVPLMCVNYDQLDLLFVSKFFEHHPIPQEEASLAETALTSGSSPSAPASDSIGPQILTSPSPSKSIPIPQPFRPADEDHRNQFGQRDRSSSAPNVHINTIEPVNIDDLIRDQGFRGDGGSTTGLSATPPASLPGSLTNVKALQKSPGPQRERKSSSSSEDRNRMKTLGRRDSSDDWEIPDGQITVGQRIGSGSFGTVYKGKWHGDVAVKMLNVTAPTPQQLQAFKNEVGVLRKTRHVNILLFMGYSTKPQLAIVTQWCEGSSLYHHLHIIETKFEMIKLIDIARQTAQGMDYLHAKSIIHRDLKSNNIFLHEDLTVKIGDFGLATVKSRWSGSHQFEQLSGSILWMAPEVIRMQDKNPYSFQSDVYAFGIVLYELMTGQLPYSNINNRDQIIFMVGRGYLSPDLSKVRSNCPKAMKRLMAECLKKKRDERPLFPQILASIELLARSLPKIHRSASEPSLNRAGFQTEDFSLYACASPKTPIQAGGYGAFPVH

These are yes or no findings as the source states them, for the method shown. In cells and extracts the contact can be indirect. Some binding calls cover weakened binding; strength is not graded here. Tags and fused reporters may be left off the sequences shown.

For the substance “B-Raf (Flag-B-Raf) (from UniProt P15056 1-766) (enzyme)”, the binding entry is recorded as “binds”.
